The source of these data is PMC7819943, “Rice protein-binding microarrays: a tool to detect cis-acting elements near promoter regions in rice”.

By UniProt entry, the sequences of proteins in these tests, tags left out.
UniProt Q0JBA9, entry or part of it: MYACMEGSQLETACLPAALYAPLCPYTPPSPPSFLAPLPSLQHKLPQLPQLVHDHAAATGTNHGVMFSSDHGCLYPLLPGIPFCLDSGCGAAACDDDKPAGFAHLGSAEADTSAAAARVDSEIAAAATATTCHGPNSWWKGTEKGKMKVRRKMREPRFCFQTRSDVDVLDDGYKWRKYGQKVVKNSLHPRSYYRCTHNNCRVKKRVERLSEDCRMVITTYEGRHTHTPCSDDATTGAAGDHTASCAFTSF

The other results are listed elsewhere or left out.

The target in this experiment is OsWRKY34 (Oryza sativa, UniProt Q0JBA9 1-250). Kind of experiment: protein-binding microarray (RPBM); PBS, 2% BSA, 51.3 ng/ul salmon testes DNA, 50 uM zinc acetate, 200 nM TF, 25 C, 1 h; high values mean tight binding. The settings on record: protein: recombinant; tags: N-terminal polyhistidine and DsRed monomer fusion (pET32a); label: CyDye5-dUTP incorporated in the synthesized complementary strand; 3' TTTTT single-stranded linker to array surface; dsDNA, one strand shown. An outline of the steps:
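In PBS with 2% BSA, salmon testes DNA and 50 µM zinc acetate, 200 nM protein was incubated on a custom Agilent array at 25 °C for 1 h and then washed off. The array had been made double-stranded by primer extension with Cy5-dUTP and blocked with 2% BSA. The proteins were transcription factors fused N-terminally to polyhistidine and DsRed, expressed in E. coli BL21-CodonPlus and purified on Ni–NTA. The binding signal is per-feature fluorescence intensity (arbitrary units) from an Axon 4000B scanner.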
Consider “CGATGTAATGCCGGGGTGGTTGTTTGGTGCAGCAGAAGGACGGAGTCACCTAGTGCAG”, for which the binding signal is 10500 fluorescence intensity (a.u.). As for “GGGCAACATCAGTGTCATCATTCCTCATGAGCACCTCAGCCGGAGTCACCTAGTGCAG”, the figure is 8850 fluorescence intensity (a.u.). Then “ATCATACTTTCTGCGTTTTAAAATATCGTTACCTAAATTTCGGAGTCACCTAGTGCAG”, with 9100 fluorescence intensity (a.u.); and “AAGGGCGGGGTGTTTTGGCTTCTCCAGCACACTTCCCTCCCGGAGTCACCTAGTGCAG”, with 9300 fluorescence intensity (a.u.).

Regarding “CCCTTCGCGGTTGGGCTCCGCCTCCGCCATCGTCGCCGACCGGAGTCACCTAGTGCAG”, the binding signal was 8080 fluorescence intensity (a.u.). As for “TAGTAGTATATTGTGTGCTGAGTTTTAGGTGATCTTGGTACGGAGTCACCTAGTGCAG”, the figure is 10100 fluorescence intensity (a.u.). As for “ATATTTGACGCCGTTGACTTTTTTAAACATATTTAACTGTCGGAGTCACCTAGTGCAG”, the figure is 14600 fluorescence intensity (a.u.); as for “GGTCGGTGTGCTAACTTCTTAGTTTATTATTCCCTTTTGCCGGAGTCACCTAGTGCAG”, 11000 fluorescence intensity (a.u.). For “TTGCGCTTTTGCTTGCGGCCAGAACACAAGCATCTTCTTTCGGAGTCACCTAGTGCAG”, the binding signal is 8280 fluorescence intensity (a.u.). Then “CCTAGTCGGCTTCGCCTCCGCTTCCTCGTCTCGTCTCCCTCGGAGTCACCTAGTGCAG”, with 8160 fluorescence intensity (a.u.). Then “ACTCTCTCCGTTTCAACTTATAAGATGTTTTGACTTTGGTCGGAGTCACCTAGTGCAG”, with 10100 fluorescence intensity (a.u.); and “ACACGATTAACTACGTACGATTTATTATACATCTTAGTTTCGGAGTCACCTAGTGCAG”, with 8500 fluorescence intensity (a.u.). Then “ATTCTGCCCGCCTATTTTTTTCATAACTATTTTAATTGACCGGAGTCACCTAGTGCAG”, with 9090 fluorescence intensity (a.u.); and “CGGCCTCTCTGTCGCCGTCCGTCTCTGTCTTGATCTCTCACGGAGTCACCTAGTGCAG”, with 8850 fluorescence intensity (a.u.). “ATCACATTTACCACCGGATAACCTCATGTTTTAGATAACTCGGAGTCACCTAGTGCAG”: the binding signal is 8180 fluorescence intensity (a.u.). For “ATAAGGGATTTTGAGTTTTTGATTACACTGTTTGACCACTCGGAGTCACCTAGTGCAG”, the binding signal was 8420 fluorescence intensity (a.u.).

With “AATTAATCATGTGTTAATGGTTTTCATGTTTTCCGTATCACGGAGTCACCTAGTGCAG”, the binding signal is 9860 fluorescence intensity (a.u.). As for “TCTCTGTCTTTCTTTGCTTCCTCATTACCTTGGTTAATGTCGGAGTCACCTAGTGCAG”, the figure is 8520 fluorescence intensity (a.u.); as for “TTTTATGATTGATTTGGCACCACTGCTACAATAATGCATCCGGAGTCACCTAGTGCAG”, 8300 fluorescence intensity (a.u.); as for “CTTGTTGGATATCTTGAGCTATTTTTCTCCTGCAAACACCCGGAGTCACCTAGTGCAG”, 8770 fluorescence intensity (a.u.). As for “GCCTATTCTTTTCGCCACCGCTATCGCCACACATCACGGACGGAGTCACCTAGTGCAG”, the figure is 17500 fluorescence intensity (a.u.); as for “CGGCGACGACCTTCAGCGATGTTTTGTCACTGTCCCCGGCCGGAGTCACCTAGTGCAG”, 8360 fluorescence intensity (a.u.); as for “GCTTGCAGGGCTTGGTTGTTTCTTCTTCCGTTTTTTTTTACGGAGTCACCTAGTGCAG”, 13600 fluorescence intensity (a.u.). Regarding “GGGTGGGGATTTTTTTTTTCGGTGCTTGTTTAATCAAAGCCGGAGTCACCTAGTGCAG”, the binding signal is 15500 fluorescence intensity (a.u.). Then “GGTTCTTGGCCTCTTGCCTGTTGGTTGGGTTTGAAGGAGGCGGAGTCACCTAGTGCAG”, with 10200 fluorescence intensity (a.u.).

Take “TGCGTTTCTCAAATTATACAAGTCATGATGGATATGTCGTCGGAGTCACCTAGTGCAG”: the binding signal was 8170 fluorescence intensity (a.u.).

In the case of “CAAGCCGTCCACCCACTTCCGCTTCCCCACGTGCCGCTCGCGGAGTCACCTAGTGCAG”, the binding signal is 8880 fluorescence intensity (a.u.). Then “CTTCTGCTGTTCTTGGTTGCGTTCATGCTTCCTTTTTTTTCGGAGTCACCTAGTGCAG”, with 12600 fluorescence intensity (a.u.); and “TCTCCTACACCCCACCCAATCCTCACCGTCCACTCCCAACCGGAGTCACCTAGTGCAG”, with 10200 fluorescence intensity (a.u.). “CTGCAAACCCATCCGCCTCCGCACCGCATCGCACCTACAACGGAGTCACCTAGTGCAG”: the binding signal is 9030 fluorescence intensity (a.u.). As for “TCTCGTTCCTCTCTCTTCTCGCTGACTCGCTGTAGTTCACCGGAGTCACCTAGTGCAG”, the figure is 8410 fluorescence intensity (a.u.); as for “AGAAAGTACATCATTTTCCGCGCGCACGCTTCCCAAACTACGGAGTCACCTAGTGCAG”, 8480 fluorescence intensity (a.u.); as for “CCTCCGCCTCCGCGCCCACCGCCATGCTCCGGCCCTCCCTCGGAGTCACCTAGTGCAG”, 8220 fluorescence intensity (a.u.). Then “AGCCCTTGTCTATACGCATCCCTTCGGATTGCCAAATAAACGGAGTCACCTAGTGCAG”, with 8280 fluorescence intensity (a.u.); and “CACATAGTTGGAGGGGTTTTCTGCAAAATGGACATCTTCTCGGAGTCACCTAGTGCAG”, with 8970 fluorescence intensity (a.u.); and “AGAGGTGGAAGGGGATGGGGAGAAAAAAAAGGAGAGGGGACGGAGTCACCTAGTGCAG”, with 8410 fluorescence intensity (a.u.). As for “GCCTCGAGCTCGCCGCCGCCGCCCCGCCGCCGCACACCATCGGAGTCACCTAGTGCAG”, the figure is 8050 fluorescence intensity (a.u.); as for “CTCACGCTACCCGCCCATCGATCTCGCGCCATCTCACAATCGGAGTCACCTAGTGCAG”, 11000 fluorescence intensity (a.u.); as for “CGAGCGTGTGTTAGGGGCATATCTGTGGGTGCGTGAATGTCGGAGTCACCTAGTGCAG”, 8970 fluorescence intensity (a.u.). With “AAGCTTTACCTGGAGCCCACAACGCTATCCAAGGCTTTATCGGAGTCACCTAGTGCAG”, the binding signal is 8070 fluorescence intensity (a.u.). Then “AGTACAAACCATCTACAGTTGCATCTCTGCTCGATCGATCCGGAGTCACCTAGTGCAG”, with 8350 fluorescence intensity (a.u.).

As for “AGGAATCGTCGTCCACTGCCTACAGCAACAGCAACCAACACGGAGTCACCTAGTGCAG”, the binding signal is 8290 fluorescence intensity (a.u.).
